# Test results as given in patent US20210130799.
# What was measured:
# Assay in all cases: enzyme reaction in vitro
# Settings in all cases: purified recombinant protein
# [1] = system: StCsm6 (Streptococcus thermophilus DGCC8004)
# [2] = system: StCsm6' (Streptococcus thermophilus DGCC8004)
# [3] = biological target: T1, TtCsm6 (Thermus thermophilus) (UniProt Q53W17)
# T1 sequence (looked up, limits assumed): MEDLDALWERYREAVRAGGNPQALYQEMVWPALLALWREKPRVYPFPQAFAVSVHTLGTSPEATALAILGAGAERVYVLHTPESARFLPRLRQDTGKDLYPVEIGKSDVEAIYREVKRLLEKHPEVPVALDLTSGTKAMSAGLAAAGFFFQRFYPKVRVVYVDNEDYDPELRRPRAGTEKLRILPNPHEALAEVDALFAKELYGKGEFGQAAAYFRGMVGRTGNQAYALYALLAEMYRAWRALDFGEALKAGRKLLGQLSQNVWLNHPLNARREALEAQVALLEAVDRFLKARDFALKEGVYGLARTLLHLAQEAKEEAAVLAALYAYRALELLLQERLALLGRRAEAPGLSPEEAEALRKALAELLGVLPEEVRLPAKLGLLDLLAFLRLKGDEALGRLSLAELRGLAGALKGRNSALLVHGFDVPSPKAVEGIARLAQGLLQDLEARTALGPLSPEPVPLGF
# [4] = no ssDNA hydrolysis, single-stranded DNA
# [5] = 0.5 uM cyclic oligoadenylates, 1 mM EDTA, label: 5'-33P
# [6] = cyclic, 3'-5' linked, no RNase stimulation, only the motif is given
# [7] = no dsRNA hydrolysis, label: 5'-33P
# [8] = GA preferred, with c(AMP)6 also other purine sites, especially AG, label: 5'-33P
# [9] = 1 uM StCsm6 without cyclic oligoadenylates, purine dinucleotide preference, label: 5'-33P
sequence,measurement,setting,value
AAATATAAGGTGGAATAAGTGAACAGAATTAAACAGTTACGAAAAAAAAAAA [ssDNA S3/2],activity on this sequence,[1]; [4],not active
same,activity on this sequence,[2]; [4],not active
GGGAAACAGCUAUGACCAUGAUUACGAAUUCACCAUGUCCUCUUCCUCUUUAGCGUUUAGAAUUUCAAUUCGAGCUCGGUACCC [ssRNA NSb],activity on this sequence,[1]; [5],active
same,activity on this sequence,[2]; [5],active
AAAAA [c(AMP)5],functional effect,[1]; [6],not active
same,functional effect,[2]; [6],not active
same,functional effect,"[3]; cyclic, 3'-5' linked, no RNase stimulation at 500 nM, only the motif is given",not active
GGGCGGCAAAUUGAGGAUUUCGUAACUGUUUAAUUCUGUUCACUUAUUCCACCAACAAAAGGUGGCGA [RNA NS],activity on this sequence,"[3]; stimulated by c(AMP)4 only, 1 mM EDTA, label: 5'-33P",active
GGGUACCGAGCUCGAAUUGAAAUUCUAAACGCUAAAGAGGAAGAGGACAUGGUGAAUUCGUAAUCAUGGUCAUAGCUGUUUCCC / GGGAAACAGCUAUGACCAUGAUUACGAAUUCACCAUGUCCUCUUCCUCUUUAGCGUUUAGAAUUUCAAUUCGAGCUCGGUACCC [dsRNA NSa/NSb],activity on this sequence,[1]; [7],not active
same,activity on this sequence,[2]; [7],not active
GGGUACCGAGCUCGAAUUGAAAUUCUAAACGCUAAAGAGGAAGAGGACAUGGUGAAUUCGUAAUCAUGGUCAUAGCUGUUUCCC [ssRNA NSa],activity on this sequence,[1]; [5],active
same,activity on this sequence,[2]; [5],active
GGGUUUCCCAACCAUCCAGCCUACCGGCCGUCCGACCUGCCUUCCCUUUCCC [ssRNA NSe],activity on this sequence,[1]; [8],active
same,activity on this sequence,[2]; [8],active
GGGAAACAGCAUAGCAAGUUAAAAUAAGGCUAGUCCGUUAUCAACUUGAAAAAGUGGCACCGAGUCGGUGCUUUUUUU [ssRNA NSc],activity on this sequence,[1]; [9],active
GGGUAAAUCUUGCAGAAGCUACAAAGAUAAGGCUUCAUGCCGAAAUCAACACCCUGUCAUUUUAUGGCAGGGUGUUUUCG [ssRNA NSd],activity on this sequence,[1]; [9],active

# For some of these results: Tags and fusion partners may be left off the protein sequences shown. The exact form of at least one protein or probe is not confirmed. Negatives hold for the conditions tested.
